Data source: PubChem BioAssay AID743121 (NCATS, 2013)

Test: 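Knock-downs that sensitise breast cancer cells to camptothecin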 (primary screen)
Cell system: MDA-MB-231 cells, a human breast cancer line
Reagents: single siRNA against human genes, 20 nM siRNA (0.8 pmol per well)
Duration: 120 h (drug added 48 h after transfection, read 72 h later)
Treatment: camptothecin 20 nM (about EC30) for 72 h; vehicle 0.1% DMSO in parallel plates
Measured: 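CellTiter-Glo ATP signal, scaled to control siRNA as percent viability; sensitisation given as log2 of untreated divided by camptothecin-treated viability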
Reading the numbers: log2 vehicle/camptothecin viability: higher = stronger sensitisation to camptothecin
Hit rule: 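Each gene scored by redundant siRNA activity (RSA) over its individual siRNA ratios; a gene is called active at p < 0.001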
In all, the deposit lists about 26,000 reagents; this is a random part of them. Over the whole deposit, 167 (0.63%) were called active. 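Calls are per gene from RSA p-values that are not deposited; an individual active-marked siRNA can sensitise only weakly.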 A number with no mark means an inactive call. Reagents against one gene are numbered here. Further read-outs or replicates are left out here.

gene | siRNA no. | log2 vehicle/camptothecin viability
FBP1 | 1 | -0.586
FBP1 | 2 | -0.0779
FBP1 | 3 | -0.319
FBP1 | 4 | 0.179
CARD18 | 1 | 0.127
CARD18 | 2 | -0.207
CARD18 | 3 | 0.0762
OPRK1 | 1 | 0.281
OPRK1 | 2 | 0.0147
OPRK1 | 3 | -0.302
OPRK1 | 4 | -0.467
HUS1 | 1 | -0.161
HUS1 | 2 | 0.143
HUS1 | 3 | -0.106
HUS1 | 4 | 0.0852
RB1CC1 | 1 | 0.61
RB1CC1 | 2 | -0.0436
RB1CC1 | 3 | 0.104
RB1CC1 | 4 | 0.096
TM2D2 | 1 | -0.529
TM2D2 | 2 | -0.335
TM2D2 | 3 | 0.445
TM2D2 | 4 | -0.268
KMT5B | 1 | -0.254
KMT5B | 2 | -0.71
KMT5B | 3 | -0.198
KMT5B | 4 | -0.37
YARS1 | 1 | -0.297
YARS1 | 2 | -0.241
YARS1 | 3 | -0.0952
CBX3 | 1 | 0.442
CBX3 | 2 | 0.047
CBX3 | 3 | -0.381
CBX3 | 4 | -0.135
APEX2 | 1 | -0.0559
APEX2 | 2 | 0.0503
APEX2 | 3 | -0.469
SLURP1 | 1 | -0.312
SLURP1 | 2 | 0.211
SLURP1 | 3 | -0.188
SLURP1 | 4 | -0.44
CCN5 | 1 | -0.275
CCN5 | 2 | 1.13
CCN5 | 3 | -0.255
CCN5 | 4 | -0.127
KCNK9 | 1 | -0.637
KCNK9 | 2 | -0.206
KCNK9 | 3 | -0.0515
